No constants are given. Whether binding was seen depends on the method and setting. In cells and extracts the contact can be indirect. Some results given as binding are weak or reduced against the parent protein; the word gives no strength.
How the values were obtained:
[1] = molecular target: AMOTL2 (human) (UniProt Q9Y2J4); test: pull-down; SBP-tagged AMOT (WT, truncations, point mutants) or AMOTL2 constructs as bait, RNF166 as prey; plasmids transfected into 293T cells for 48 h; streptavidin pulldown, immunoblot
[2] = molecular target: AMOTL2 in HCT116 cell xenograft tumors (human (endogenous in HCT116)) (UniProt Q9Y2J4); test: co-IP; immunoprecipitation from HCT116 cell xenograft tumors of control (DMSO) mice; which protein was precipitated is not told
[3] = molecular target: AMOTL2 in HCT116 cell xenograft tumors (human (endogenous in HCT116)) (UniProt Q9Y2J4); test: condition: only tumors of mice treated with XAV939 (20 mg/kg); co-IP; immunoprecipitation from HCT116 cell xenograft tumors of mice dosed with XAV939 (20 mg/kg every 3 days, intraperitoneal)

Chains of the proteins cited; added tags and fusions are not shown.
UniProt Q9Y2J4: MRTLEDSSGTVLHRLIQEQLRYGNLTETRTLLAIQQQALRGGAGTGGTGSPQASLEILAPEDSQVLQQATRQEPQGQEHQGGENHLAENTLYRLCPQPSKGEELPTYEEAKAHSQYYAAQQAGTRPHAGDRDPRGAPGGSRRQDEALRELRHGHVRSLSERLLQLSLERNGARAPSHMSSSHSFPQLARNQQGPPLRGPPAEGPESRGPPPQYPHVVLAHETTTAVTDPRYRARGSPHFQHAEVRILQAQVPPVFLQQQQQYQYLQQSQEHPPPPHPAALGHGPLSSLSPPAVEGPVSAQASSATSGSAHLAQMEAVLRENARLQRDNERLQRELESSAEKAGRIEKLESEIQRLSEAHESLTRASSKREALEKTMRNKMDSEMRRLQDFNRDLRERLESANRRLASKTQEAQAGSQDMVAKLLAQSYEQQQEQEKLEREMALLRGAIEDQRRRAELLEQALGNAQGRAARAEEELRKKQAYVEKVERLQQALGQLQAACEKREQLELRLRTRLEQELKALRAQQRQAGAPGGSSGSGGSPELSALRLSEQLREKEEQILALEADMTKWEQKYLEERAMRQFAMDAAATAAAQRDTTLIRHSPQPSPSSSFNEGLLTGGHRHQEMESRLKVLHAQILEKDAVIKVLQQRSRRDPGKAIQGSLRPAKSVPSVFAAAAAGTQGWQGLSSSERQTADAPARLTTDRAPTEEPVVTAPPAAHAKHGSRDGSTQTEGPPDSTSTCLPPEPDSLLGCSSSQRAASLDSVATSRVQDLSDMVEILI

| Substance | binding [1] | binding [2] | binding [3] |
| --- | --- | --- | --- |
| RNF166 (from UniProt Q96A37 1-237) (enzyme) | binds |  |  |
| RNF166 in HCT116 cell xenograft tumors (from UniProt Q96A37 1-237) (enzyme) |  | binds | no binding |
